The values that follow come from PubChem BioAssay AID1487 (National Center for Advancing Translational Sciences (NCATS), 2009).

This assay can be described thus: qHTS Assay for Modulators of Lamin A Splicing. The note with it: HeLa LMNA splicing GFP/RFP minigene ratio, 48 h. In a few lines: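 S3 HeLa stable clones carrying a lamin A-EGFP splicing minigene plus DsRed2 were seeded at 600 cells/well in Opti-MEM with 2% FBS, pin-dosed and incubated 48 h at 37°C. Acumen cytometry (488 nm) gave the GFP/RFP total-intensity ratio.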
Background: In qHTS, concentration-response curves come from the screen itself.

Where [1] appears, read: measured here: RFP viability control channel.
Where [2] appears, read: measured here: GFP splicing reporter channel.

Values joined by “and” are separate entries in the source; they are usually repeats but may differ in a detail not shown here. Equal values may be shown once. The list shows a part of the results. The main result of the screen is listed elsewhere. These columns were measured beside it and carry no call. The list favours compounds with an active or inconclusive main result. Potencies come from curve fits of mixed quality, noted in brackets.

Take `c1csc(Cc2nc3ccccc3[nH]2)c1`: the AC50 – broadly, the concentration at which the activity in the assay is half-maximal – under setting [1] was 2.24 µM [rising, partial curve]. The same measure, in the same setting: the value for `Cc1nc2ccc(NC(=O)C3CCN(S(=O)(=O)c4cccs4)CC3)cc2s1` was 22.4 µM [rising, single point]. Same read-out and setting: the same measure for `Cc1cc(C)cc(N2C(=O)CN(Cc3sccc3C)C2=S)c1`: 35.5 µM [rising, single point]. On the same count and under the same terms, the value for `Cc1cccc(N2CCN(C(=O)C3CCN(c4nnc(-n5cccc5)s4)CC3)CC2C)c1` (stereo not drawn) was 31.6 µM [rising, single point]; that for `COc1ccccc1NC(=O)CC1Nc2ccccc2NC1=O` (stereo not drawn) was 35.5 µM [rising, single point].

`COC(=O)[C@@]1(Cc2ccc(OC)cc2)[C@H]2c3cc(C(=O)N(C)C)n(CCSCCO)c3C[C@H]2CN1C(=O)c1ccccc1`: the AC50 under setting [1] is 0.00447 µM [falling, full curve, poor fit]. The same measure, in the same setting: the value for `O=C(NCCOc1ccc(Cl)cc1)C1CC(=O)N(c2ccc(F)cc2)C1` (stereo not drawn) was 0.398 µM [falling, partial curve, poor fit].

Regarding `Cc1ccc(NC(=O)c2cc(S(=O)(=O)NCCC3=CCCCC3)ccc2F)cc1`, the AC50 by setting is: under setting [2], 20 µM [falling, partial curve, poor fit]; under setting [1], 2.82 µM [rising, partial curve]. Regarding `COc1ccccc1N1CCN(C/C=C/c2ccc(N(C)C)cc2)CC1`, the AC50 under setting [2] was 12.6 µM [rising, single point]. As for `Cc1ccc(NCC(=O)N/N=C/c2cccc(Oc3ccccc3)c2)cc1`, the concentration at half-maximal activity (AC50) under setting [1] was 35.5 µM [rising, single point]. The same measure, in the same setting: the value for `Cc1nnc(SCC(=O)N2c3ccccc3C(C)(c3ccc(Cl)cc3)CC2(C)C)s1` (stereo not drawn) was 35.5 µM [rising, single point]. Same read-out and setting: the value for `COc1ccc(CCC(=O)Nc2cccc(S(=O)(=O)N(C)C)c2)cc1OC` was 22.4 µM [rising, single point]. Regarding `Cc1ccc(CNc2ccc(S(=O)(=O)N3CCOCC3)cc2[N+](=O)[O-])cc1`, the AC50 under setting [2] was 31.6 µM [rising, single point] and the AC50 under setting [1] is 35.5 µM [rising, single point]. As to `O=C(COC(=O)CCCN1C(=O)c2ccccc2C1=O)Nc1cc(Cl)cc(Cl)c1`, the AC50 under setting [1] was 0.355 µM [falling, partial curve, poor fit]. As for `Cc1ccc(C(=O)Nc2nc(-c3cc(Cl)sc3Cl)cs2)cc1`, the half-maximal activity concentration (AC50) reads like this: under setting [2], 22.4 µM [rising, single point]; under setting [1], 11.2 µM [rising, partial curve]. As to `O=C(NCCCN1CCOCC1)c1ccc(N2CCCC2)c([N+](=O)[O-])c1`, the AC50 under setting [2] is 6.31 µM [falling, partial curve, poor fit]. For `Cc1nnc(SCC(=O)N2CCN(S(=O)(=O)c3ccc(Cl)cc3)CC2)[nH]c1=O`, the AC50 reads like this: under setting [2], 35.5 µM [rising, single point]; under setting [1], 14.1 µM [rising, single point]. `Brc1c(CSc2nc3ccccc3s2)nc2ncccn12`: under setting [1], the AC50 is 12.6 µM [rising, partial curve, poor fit].

`COc1ccccc1NC(=O)CSc1nnc(-c2ccccn2)n1Cc1ccco1`: the concentration at half-maximal activity (AC50) under setting [1] is 0.631 µM [falling, single point]. Still for that read-out and setting: the value for `Oc1ccccc1C=NC1=NN(c2cccc(C(F)(F)F)c2)CC1` was 35.5 µM [rising, single point]. On to `COc1ccc(C)cc1-n1nnnc1SCc1csc(C)n1`, for which the AC50 under setting [2] is 35.5 µM [rising, single point]. Turning to `CC1CCCCN1S(=O)(=O)c1ccc2c(c1)oc(=O)n2CC(=O)Nc1ccc(Cl)cc1` (stereo not drawn), the AC50 under setting [1] is 0.141 µM [rising, full curve]. As for `CCCCNc1cc(C(=O)O)cc(S(N)(=O)=O)c1Oc1ccccc1`, the AC50 by setting is: under setting [2], 0.141 µM [falling, full curve]; under setting [1], 8.91 µM [falling, partial curve, poor fit] and 5.62 µM [falling, partial curve, poor fit]. As to `COc1ccccc1NC(=S)N1CCN(C(c2ccccc2)c2ccccc2)CC1`, the concentration at half-maximal activity (AC50) under setting [1] was 0.316 µM [falling, partial curve, poor fit]. `Cc1ccc(C(=O)Nc2ccccc2C(=O)NC(Cc2ccccc2)C(=O)O)cc1` (stereo not drawn): the concentration at half-maximal activity (AC50) is 0.794 µM [rising, full curve, poor fit] under setting [2] and 0.794 µM [rising, full curve, poor fit] under setting [1].

Take `CCc1ccc(-c2nn(CC(=O)NC3CCCCC3)c3c2cnc2ccc(OC)cc23)cc1`: the AC50 under setting [2] was 1.78 µM [falling, partial curve, poor fit]. Turning to `CC(CN1CC(=O)NC(=O)C1)N1CC(=O)NC(=O)C1` (stereo not drawn), the AC50 under setting [1] was 11.2 µM [rising, partial curve, poor fit].

Consider `Cc1ccc(C2C3=C(Nc4[nH]n(-c5ccccc5)c(=O)c42)c2ccccc2C3=O)cc1` (stereo not drawn), for which the AC50 under setting [2] is 20 µM [rising, partial curve, poor fit] and the AC50 under setting [1] is 12.6 µM [rising, partial curve]. `COc1c2c(nc3occc13)C(CC=C(C)C)(OC)C(O)CC2` (stereo not drawn): the AC50 under setting [2] was 5.62 µM [rising, partial curve, poor fit].

As for `C=CCc1ccccc1OCC(O)CN1CCN(CCN2C(=O)c3cccc4cccc(c34)C2=O)CC1` (stereo not drawn), the AC50 under setting [1] was 35.5 µM [falling, single point].

Take `CCCSc1nc(N2CCOCC2)c2c(c1C#N)CCCC2`: the AC50 under setting [2] was 35.5 µM [rising, single point] and the AC50 under setting [1] is 25.1 µM [rising, single point].

For `FC(F)Oc1ccc(-c2csc(Cc3nnc4n3CCCCC4)n2)cc1`, the half-maximal activity concentration (AC50) reads like this: under setting [2], 15.8 µM [rising, single point]; under setting [1], 31.6 µM [rising, single point]. Regarding `O=C(NNC(=S)NC(=O)c1sc2ccccc2c1Cl)c1ccc(Cl)cc1`, the AC50 is 3.55 µM [falling, single point] under setting [2] and 0.251 µM [falling, partial curve, poor fit] under setting [1]. As to `CCc1cccc(CC)c1NC(=O)COc1ccccc1C(=O)c1cc(C#N)c(=O)n(C2CCCCC2)c1`, the AC50 was 14.1 µM [rising, single point] under setting [2] and 14.1 µM [rising, single point] under setting [1].

Take `Cc1ccccc1N=C1SC(CC(=O)Nc2ccc3ccccc3c2)C(=O)N1Cc1ccccn1` (stereo not drawn): the half-maximal activity concentration (AC50) under setting [2] was 35.5 µM [falling, single point]. Regarding `COc1ccc(NC(=S)N(CCc2c(C)[nH]c3ccccc23)Cc2cccnc2)cc1`, the AC50 under setting [1] was 2.24 µM [rising, partial curve, poor fit]. For `O=C(CSc1c2c(nc3cc(Cl)ccc13)CCCC2)NCc1ccco1`, the AC50 under setting [1] was 17.8 µM [rising, single point]. Still for that read-out and setting: the same measure for `Oc1c(C(c2ccccc2)N2CCN(c3ccccc3)CC2)sc2nc(-c3ccco3)nn12` (stereo not drawn): 31.6 µM [falling, single point]. For `CCN1C(=O)C2C(c3cccc(F)c3)NC(C)(C(=O)OC)C2C1=O` (stereo not drawn), under setting [2], the AC50 is 0.501 µM [falling, single point].

For the molecule `Cc1ccc2nc(Cl)c(/C=N/NC(=O)c3ccccc3O)cc2c1`, the AC50 under setting [1] is 35.5 µM [rising, single point]. Regarding `CCOC(=O)c1cc(C#N)c(SCc2ccc(C#N)cc2)nc1C`, under setting [2], the half-maximal activity concentration (AC50) was 14.1 µM [rising, single point]. Take `Clc1cccc(Cl)c1CON/C=N/c1ncnc2sccc12`: the AC50 under setting [1] is 2.51 µM [rising, partial curve].

`Cc1cc(/C=N/NC(N)=S)c(C)n1-c1ccc(Cl)c(Cl)c1`: the AC50 runs as follows: under setting [2], 6.31 µM [rising, partial curve]; under setting [1], 2.51 µM [rising, partial curve, poor fit]. Regarding `O=C(CSc1nnc(Nc2ccccc2F)s1)Nc1cccc(S(=O)(=O)N2CCCCC2)c1`, the concentration at half-maximal activity (AC50) under setting [1] was 35.5 µM [rising, single point].

`S=C1NC(c2cccs2)=CC(c2ccc(Br)cc2)N1` (stereo not drawn): the AC50 is, setting by setting: under setting [2], 35.5 µM [rising, single point]; under setting [1], 28.2 µM [rising, single point]. For `CCN(CC)C(=O)NC(c1ccc(C)c(F)c1)C(Cl)(Cl)Cl` (stereo not drawn), the half-maximal activity concentration (AC50) under setting [1] is 22.4 µM [rising, single point]. For `CCSC(=Nc1ccccc1)Nc1ccccc1`, under setting [2], the AC50 was 0.0708 µM [falling, full curve, poor fit].

Consider `COc1ccccc1NC(=S)NNC(=O)c1ccc(Cl)cc1Cl`, for which the AC50 under setting [1] is 31.6 µM [rising, single point]. For `O=C(NNc1c(Cl)cc(Cl)cc1Cl)C1CCC1`, under setting [2], the AC50 is 5.62 µM [rising, full curve, poor fit]. On to `Cc1noc(C)c1-c1nccc(-n2ccnc2)n1`, for which the AC50 under setting [2] was 5.01 µM [rising, single point] and the AC50 under setting [1] was 3.55 µM [rising, single point]. Consider `CCc1cccc(N=c2c([N+](=O)[O-])nn(-c3ccc(Cl)cc3)n2O)c1`, for which the AC50 under setting [1] was 35.5 µM [rising, single point]. Regarding `O=C(CNC1CCCCC1)NCC1(c2ccccc2)CCCC1`, the concentration at half-maximal activity (AC50) is, setting by setting: under setting [2], 17.8 µM [falling, partial curve, poor fit]; under setting [1], 35.5 µM [falling, single point]. Consider `Cc1ccc(N=N/C(=C\O)C(=O)c2ccc(Cl)cc2)cc1`, for which the AC50 under setting [1] is 2.51 µM [falling, partial curve]. The same measure, in the same setting: the value for `COc1ccc(N2CCN(C(=O)Nc3cccc(C(F)(F)F)c3)CC2)cc1` was 35.5 µM [rising, single point]. Take `C=CCNC(=S)NNC(=O)c1cc(C)nc2ccccc12`: the half-maximal activity concentration (AC50) under setting [2] is 35.5 µM [rising, single point]. Still for that read-out and setting: the same measure for `O=C(O)C1C2CCC(O2)C1C(=O)Nc1ccc(O)cc1` (stereo not drawn): 2.24 µM [falling, partial curve, poor fit]. For `CC(=O)Oc1ccccc1C(=O)Oc1ccccc1C(=O)O`, the AC50 reads like this: under setting [2], 0.316 µM [falling, full curve, poor fit]; under setting [1], 0.316 µM [falling, single point].
